Results are given in words; binding and its absence hold for the method and conditions named. Binding seen in cells or lysates may run through a third protein. Some results given as binding are weak or reduced against the parent protein; the word gives no strength. Where a sequence is shown, tags or fusion partners need not be part of it.
T1: calgranulin B-FLAG (UniProt P06702)
T1 sequence: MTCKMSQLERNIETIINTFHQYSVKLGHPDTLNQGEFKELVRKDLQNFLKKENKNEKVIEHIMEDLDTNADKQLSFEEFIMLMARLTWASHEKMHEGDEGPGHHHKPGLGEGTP

The chains behind the UniProt entries cited, without tags or fusion partners.
UniProt O14576: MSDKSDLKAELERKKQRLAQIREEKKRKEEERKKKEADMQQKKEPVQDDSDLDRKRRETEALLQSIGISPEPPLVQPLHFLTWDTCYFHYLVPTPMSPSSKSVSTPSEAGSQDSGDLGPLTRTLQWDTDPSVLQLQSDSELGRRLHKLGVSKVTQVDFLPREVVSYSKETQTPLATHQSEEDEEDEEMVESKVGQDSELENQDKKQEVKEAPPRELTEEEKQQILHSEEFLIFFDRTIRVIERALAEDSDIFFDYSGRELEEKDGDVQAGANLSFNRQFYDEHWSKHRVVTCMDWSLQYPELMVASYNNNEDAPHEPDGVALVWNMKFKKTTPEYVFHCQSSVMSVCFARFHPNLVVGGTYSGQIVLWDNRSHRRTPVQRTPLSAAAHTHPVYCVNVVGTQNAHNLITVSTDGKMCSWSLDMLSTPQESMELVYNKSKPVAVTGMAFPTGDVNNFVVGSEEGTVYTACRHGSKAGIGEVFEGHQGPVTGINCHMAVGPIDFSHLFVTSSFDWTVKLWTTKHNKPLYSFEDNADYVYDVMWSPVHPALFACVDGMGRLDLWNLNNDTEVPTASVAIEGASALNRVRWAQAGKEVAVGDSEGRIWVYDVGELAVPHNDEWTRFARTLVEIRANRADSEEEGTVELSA

B1: flotillin-1 (protein, UniProt O75955 1-427)
chain: MFFTCGPNEAMVVSGFCRSPPVMVAGGRVFVLPCIQQIQRISLNTLTLNVKSEKVYTRHGVPISVTGIAQVKIQGQNKEMLAAACQMFLGKTEAEIAHIALETLEGHQRAIMAHMTVEEIYKDRQKFSEQVFKVASSDLVNMGISVVSYTLKDIHDDQDYLHSLGKARTAQVQKDARIGEAEAKRDAGIREAKAKQEKVSAQYLSEIEMAKAQRDYELKKAAYDIEVNTRRAQADLAYQLQVAKTKQQIEEQRVQVQVVERAQQVAVQEQEIARREKELEARVRKPAEAERYKLERLAEAEKSQLIMQAEAEAASVRMRGEAEAFAIGARARAEAEQMAKKAEAFQLYQEAAQLDMLLEKLPQVAEEISGPLTSANKITLVSSGSGTMGAAKVTGEVLDILTRLPESVERLTGVSISQVNHKPLRTA
B2: CD59 glycoprotein (protein, UniProt P13987 26-102)
chain: LQCYNCPNPTADCKTAVNCSSDFDACLITKAGLQVYNKCWKFEHCNFNDVTTRLRENELTYYCCKKDLCNFNEQLEN

Biological target: T1, calgranulin B-FLAG
Assay: co-IP; lysate of lentivirus-infected HCT-116 cells in IP buffer (150 mM NaCl, 25 mM HEPES-KOH pH 7.5, 0.5% Triton X-100, 2 mM EDTA) on anti-FLAG M2 affinity gel, 2 h at 4°C; western blot with specific antibodies

binding | Molecule
binds | dynein intermediate chain 1 (from UniProt O14576 1-645)
binds | B1
binds | B2
